Reference: paper PMC4122344, “Heterodimerization of p45–p75 Modulates p75 Signaling: Structural Basis and Mechanism of Action” (PLoS Biology, 2014)
Substitutions are numbered along the chain they refer to. These are yes or no findings as the source states them, for the method shown. For some assays here: Binding seen in cells or lysates may run through a third protein. Some results given as binding are weak or reduced against the parent protein; the word gives no strength. For some assays here: Where a sequence is shown, tags or fusion partners need not be part of it.

Protein sequences, listed by entry. Tags and fused reporters are not part of them. Residues count along the entry.
UniProt P07174, residues 30-425: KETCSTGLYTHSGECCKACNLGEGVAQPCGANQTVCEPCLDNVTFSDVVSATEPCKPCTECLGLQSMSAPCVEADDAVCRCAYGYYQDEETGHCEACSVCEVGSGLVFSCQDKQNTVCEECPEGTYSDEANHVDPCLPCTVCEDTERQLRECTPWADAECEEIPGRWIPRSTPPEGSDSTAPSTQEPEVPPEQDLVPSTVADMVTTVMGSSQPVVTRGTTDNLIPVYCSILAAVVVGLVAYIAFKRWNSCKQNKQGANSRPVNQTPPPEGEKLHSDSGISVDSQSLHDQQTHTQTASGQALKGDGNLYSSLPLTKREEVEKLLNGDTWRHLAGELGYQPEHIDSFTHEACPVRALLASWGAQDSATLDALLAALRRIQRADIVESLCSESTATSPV
UniProt Q13158: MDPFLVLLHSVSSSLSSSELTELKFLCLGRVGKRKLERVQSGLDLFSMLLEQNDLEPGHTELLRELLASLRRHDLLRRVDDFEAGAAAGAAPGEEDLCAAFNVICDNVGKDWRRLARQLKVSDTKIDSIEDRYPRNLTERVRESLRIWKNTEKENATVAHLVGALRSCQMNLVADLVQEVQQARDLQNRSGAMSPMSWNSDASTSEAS
UniProt Q9Z0W1, residues 32-427: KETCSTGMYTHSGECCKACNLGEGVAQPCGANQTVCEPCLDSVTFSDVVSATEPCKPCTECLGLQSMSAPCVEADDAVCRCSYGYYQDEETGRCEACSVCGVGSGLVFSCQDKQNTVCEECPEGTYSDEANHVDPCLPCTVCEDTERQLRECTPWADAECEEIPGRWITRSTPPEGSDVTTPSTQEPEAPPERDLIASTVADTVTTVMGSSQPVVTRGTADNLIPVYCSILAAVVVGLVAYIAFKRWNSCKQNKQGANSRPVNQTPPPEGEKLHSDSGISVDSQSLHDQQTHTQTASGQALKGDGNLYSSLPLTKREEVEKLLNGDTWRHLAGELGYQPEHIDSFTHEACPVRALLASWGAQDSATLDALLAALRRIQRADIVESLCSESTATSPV

Key:
[1] = target: T1, p45 C177H (full-length) (mouse) (UniProt Q8CJ26); experiment: co-IP; HEK293 transfected with wild-type or mutant full-length p45 and Myc-p75
T1 sequence: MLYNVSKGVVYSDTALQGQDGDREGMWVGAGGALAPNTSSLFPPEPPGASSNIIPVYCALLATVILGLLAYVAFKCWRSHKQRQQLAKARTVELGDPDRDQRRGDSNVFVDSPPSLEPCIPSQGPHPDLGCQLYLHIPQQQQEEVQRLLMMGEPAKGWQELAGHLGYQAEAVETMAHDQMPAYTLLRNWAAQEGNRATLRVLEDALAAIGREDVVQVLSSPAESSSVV

[2] = target: T2, p45 D178A (full-length) (mouse) (UniProt Q8CJ26); experiment: as above
T2 sequence: T1 sequence with H177C, D178A

[3] = target: T3, p45 D178R (full-length) (mouse) (UniProt Q8CJ26); experiment: as above
T3 sequence: T1 sequence with H177C, D178R

[4] = target: T4, p45 E173R (full-length) (mouse) (UniProt Q8CJ26); experiment: as above
T4 sequence: T1 sequence with E173R, H177C

[5] = target: T5, p45 wild type (full-length, no tag named) (mouse) (UniProt Q8CJ26); experiment: as above
T5 sequence: T1 sequence with H177C

Flag-p45 (mouse) [6] = target: T6, Flag-p45 (mouse) (UniProt Q8CJ26); experiment: co-IP; V5-tagged proteins transfected into CrmA/Flag-p45/293 stable cells; lysates immunoprecipitated with anti-Flag, blotted with anti-V5
T6 sequence: T1 sequence with H177C

Flag-tagged human NgR [7] = target: T7, Flag-tagged human NgR (human, UniProt Q9BZR6 27-447); experiment: co-IP; 293T cells co-transfected with V5-p45 or V5-p75 and Flag-NgR; immunoprecipitated with Flag antibody (M2)
T7 construct: Nogo-66 receptor (NgR), human; Printed both as Flag-hNgR and as NgR-Flag; also called Flag-hNgR; NgR-Flag; source: HEK293, transfected, in lysate
T7 sequence (looked up): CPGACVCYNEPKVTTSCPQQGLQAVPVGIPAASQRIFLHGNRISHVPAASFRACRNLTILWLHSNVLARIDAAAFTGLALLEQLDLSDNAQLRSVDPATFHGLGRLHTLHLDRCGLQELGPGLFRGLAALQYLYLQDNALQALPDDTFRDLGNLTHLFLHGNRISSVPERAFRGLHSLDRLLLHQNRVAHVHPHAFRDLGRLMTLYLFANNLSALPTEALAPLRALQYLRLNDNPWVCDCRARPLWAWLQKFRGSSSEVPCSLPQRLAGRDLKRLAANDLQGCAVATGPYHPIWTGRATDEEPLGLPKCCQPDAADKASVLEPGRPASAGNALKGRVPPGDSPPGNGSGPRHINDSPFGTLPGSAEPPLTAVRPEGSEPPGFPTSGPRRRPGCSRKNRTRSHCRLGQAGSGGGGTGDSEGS

[8] = target: T8, p45 (endogenous, P7 cerebellum) (mouse (endogenous in P7 cerebellum)) (UniProt Q8CJ26); experiment: co-IP; P7 cerebellum extracts immunoprecipitated with anti-p75 ECD (9651) or anti-p45 ECD (6750) antibody, blotted with anti-p75 (Buster)
T8 sequence: T1 sequence with H177C

Flag-p45 (mouse) [9] = target: T6, Flag-p45 (mouse); experiment: co-IP; HEK293 transfected with wild-type or mutant p75 and Flag-p45
[10] = target: T5, p45 wild type (full-length, no tag named) (mouse); experiment: co-IP; HEK293 transfected with p75 wild type or p75-C257A and p45 wild type or p45-C58A; Western blot
[11] = target: T9, p45-C58A (full-length) (mouse) (UniProt Q8CJ26); experiment: as above
T9 sequence: T1 sequence with C58A, H177C

[12] = target: p75 wild type (full-length, no tag named) (UniProt P07174); experiment: non-reducing SDS-PAGE and Western blot (disulfide-linked dimer); p75 co-immunoprecipitated with NgR-Flag from HEK293 cells, run on non-reducing SDS-PAGE
Flag-tagged human NgR [13] = target: T7, Flag-tagged human NgR; experiment: co-IP; HEK293 co-transfected with wild-type or mutant p75 and Flag-tagged NgR; p75 co-immunoprecipitated with NgR; blots quantified, wild type = 100%
[14] = target: T5, p45 wild type (full-length, no tag named) (mouse); experiment: non-reducing SDS-PAGE and Western blot (disulfide-linked dimer); co-immunoprecipitates of p75 wild type or p75-C257A with p45 from HEK293 cells, reducing and non-reducing SDS-PAGE; band sensitive to DTT
[15] = target: p75 wild type (full-length, no tag named) (UniProt P07174); experiment: co-IP; HEK293 co-transfected with p75, Flag-hNgR and p45 (varying amounts) or p45 deletion constructs; immunoprecipitated with anti-p75 (ICD) antibodies, probed with anti-Flag; RIPA lysis

## Myc-p75 (from UniProt P07174 30-425) (receptor)
[1]
  binding: binds
[2]
  binding: binds
[3]
  binding: binds
[4]
  binding: binds
[5]
  binding: binds

## V5-tagged FADD (from UniProt Q13158 1-208)
Flag-p45 (mouse) [6]
  binding: binds

## V5-tagged p75 (from UniProt P07174 30-425) (receptor)
Flag-tagged human NgR [7]
  binding: binds
Flag-p45 (mouse) [6]
  binding: binds

## p75 (endogenous, P7 cerebellum) (from UniProt Q9Z0W1 32-427) (receptor)
[8]
  binding: binds

## p75 wild type (full-length, no tag named) (from UniProt P07174 30-425) (receptor)
Flag-p45 (mouse) [9]
  binding: binds
[10]
  binding: binds
[11]
  binding: binds weakly
[12]
  binding: binds
Flag-tagged human NgR [13]
  binding: binds
[14]
  binding: binds

B1: Flag-tagged human NgR (receptor, UniProt Q9BZR6 27-447)
chain: T7 sequence (looked up)
[15]
  binding: binds

B2: V5-tagged p45 (receptor, UniProt Q8CJ26 1-228)
chain: T1 sequence with H177C
Flag-tagged human NgR [7]
  binding: no binding
